One assay has as its target T1, GST-JIP1 (1-282) (UniProt Q9WVI9).
T1 sequence: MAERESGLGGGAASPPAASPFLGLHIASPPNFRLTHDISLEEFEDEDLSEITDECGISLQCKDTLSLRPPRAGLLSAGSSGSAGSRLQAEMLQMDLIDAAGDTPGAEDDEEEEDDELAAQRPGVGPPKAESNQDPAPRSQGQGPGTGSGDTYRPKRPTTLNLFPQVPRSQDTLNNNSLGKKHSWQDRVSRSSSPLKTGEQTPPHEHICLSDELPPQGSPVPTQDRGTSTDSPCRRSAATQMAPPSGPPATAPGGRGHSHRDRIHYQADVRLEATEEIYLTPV
Briefly: pull-down; lysates of transfected Cos1 cells (48 h; 20 mM Tris-HCl pH 7.4, 137 mM NaCl, 2 mM EDTA, 1% Triton-X100) mixed with glutathione-Sepharose beads 12 h at 4°C to bring down the GST fusion protein; associated transfected or endogenous proteins detected by western blot. A general note: Immunoblotting shows a protein as a band on a membrane.

Amino acid sequences for entries named in this document (tags omitted). A change or cut given only in a name is not applied to a line headed by its entry. Chains listed by the source or under a name are the forms on record and can include a tag or linker.
UniProt Q86Y07: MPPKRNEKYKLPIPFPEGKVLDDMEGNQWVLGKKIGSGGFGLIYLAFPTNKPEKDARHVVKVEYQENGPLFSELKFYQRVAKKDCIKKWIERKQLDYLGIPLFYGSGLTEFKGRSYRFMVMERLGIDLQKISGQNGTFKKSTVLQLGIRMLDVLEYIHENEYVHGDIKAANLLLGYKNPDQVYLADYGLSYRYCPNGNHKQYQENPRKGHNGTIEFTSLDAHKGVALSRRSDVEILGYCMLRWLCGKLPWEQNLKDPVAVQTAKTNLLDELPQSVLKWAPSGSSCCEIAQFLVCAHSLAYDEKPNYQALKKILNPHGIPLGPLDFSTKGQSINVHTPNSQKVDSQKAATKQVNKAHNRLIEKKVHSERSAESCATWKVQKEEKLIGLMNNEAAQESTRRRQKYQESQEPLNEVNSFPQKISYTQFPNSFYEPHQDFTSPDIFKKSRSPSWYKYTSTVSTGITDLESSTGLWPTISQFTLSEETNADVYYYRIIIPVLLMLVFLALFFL
GST-VRK2B (mammalian expression) (Q86Y07-2, form named): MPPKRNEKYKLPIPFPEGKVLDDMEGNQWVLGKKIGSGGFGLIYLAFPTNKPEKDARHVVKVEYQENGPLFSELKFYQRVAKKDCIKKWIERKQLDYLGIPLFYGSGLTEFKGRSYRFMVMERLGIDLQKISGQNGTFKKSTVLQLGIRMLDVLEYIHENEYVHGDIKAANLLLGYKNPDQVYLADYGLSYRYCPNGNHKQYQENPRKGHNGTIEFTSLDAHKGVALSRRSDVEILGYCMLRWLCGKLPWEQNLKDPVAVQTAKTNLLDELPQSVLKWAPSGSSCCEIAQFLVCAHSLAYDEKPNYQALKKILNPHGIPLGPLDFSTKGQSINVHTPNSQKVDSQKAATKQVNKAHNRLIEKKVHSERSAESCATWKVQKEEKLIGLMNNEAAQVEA
UniProt Q9UQF2: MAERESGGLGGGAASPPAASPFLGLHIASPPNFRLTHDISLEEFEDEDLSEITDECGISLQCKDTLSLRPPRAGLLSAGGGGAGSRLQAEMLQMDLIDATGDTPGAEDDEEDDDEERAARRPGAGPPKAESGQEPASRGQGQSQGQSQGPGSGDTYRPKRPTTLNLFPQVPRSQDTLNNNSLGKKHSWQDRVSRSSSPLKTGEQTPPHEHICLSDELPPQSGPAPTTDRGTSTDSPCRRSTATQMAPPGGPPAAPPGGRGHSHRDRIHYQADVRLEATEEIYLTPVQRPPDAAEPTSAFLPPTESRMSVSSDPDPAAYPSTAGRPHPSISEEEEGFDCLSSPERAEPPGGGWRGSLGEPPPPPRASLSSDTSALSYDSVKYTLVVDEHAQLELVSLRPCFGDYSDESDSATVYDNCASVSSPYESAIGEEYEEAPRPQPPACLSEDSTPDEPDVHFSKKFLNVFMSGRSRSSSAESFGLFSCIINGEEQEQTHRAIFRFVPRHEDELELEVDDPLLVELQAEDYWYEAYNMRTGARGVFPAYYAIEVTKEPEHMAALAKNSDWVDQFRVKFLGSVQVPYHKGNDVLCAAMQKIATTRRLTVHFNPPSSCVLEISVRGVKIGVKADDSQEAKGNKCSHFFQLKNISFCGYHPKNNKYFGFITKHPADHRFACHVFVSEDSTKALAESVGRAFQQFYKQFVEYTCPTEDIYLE

The target of another assay is T2, GST-JIP1 (471-660) (UniProt Q9WVI9).
T2 sequence: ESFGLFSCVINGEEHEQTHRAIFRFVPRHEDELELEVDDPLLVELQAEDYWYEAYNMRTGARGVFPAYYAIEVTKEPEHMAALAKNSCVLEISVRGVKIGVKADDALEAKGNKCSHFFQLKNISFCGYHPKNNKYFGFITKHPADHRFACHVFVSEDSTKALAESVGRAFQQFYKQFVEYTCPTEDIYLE
The assay is described as above.

Assay [1] deals with T3, GST-JIP1 full-length fusion protein (UniProt Q9WVI9).
T3 sequence: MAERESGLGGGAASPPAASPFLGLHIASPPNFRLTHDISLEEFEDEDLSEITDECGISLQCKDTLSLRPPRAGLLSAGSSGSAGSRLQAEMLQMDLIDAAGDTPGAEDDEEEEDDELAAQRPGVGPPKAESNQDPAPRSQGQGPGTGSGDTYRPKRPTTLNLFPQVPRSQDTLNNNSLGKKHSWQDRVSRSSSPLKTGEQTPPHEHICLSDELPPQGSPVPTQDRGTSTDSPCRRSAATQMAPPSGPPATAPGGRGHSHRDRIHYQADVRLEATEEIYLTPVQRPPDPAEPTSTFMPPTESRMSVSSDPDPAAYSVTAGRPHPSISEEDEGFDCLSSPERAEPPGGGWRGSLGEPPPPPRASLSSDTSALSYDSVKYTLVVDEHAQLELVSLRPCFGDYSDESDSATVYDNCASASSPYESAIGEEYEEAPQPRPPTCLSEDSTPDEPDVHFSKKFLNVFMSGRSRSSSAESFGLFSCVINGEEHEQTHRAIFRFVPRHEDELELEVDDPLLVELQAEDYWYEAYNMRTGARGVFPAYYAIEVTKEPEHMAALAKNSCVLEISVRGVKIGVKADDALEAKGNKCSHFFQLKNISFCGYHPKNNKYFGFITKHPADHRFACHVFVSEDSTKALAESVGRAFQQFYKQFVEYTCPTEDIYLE
The assay is described as above.

Assay [2] deals with T3, GST-JIP1 full-length fusion protein. Briefly: SEC; extracts of Cos1 cells transfected with pGST-JIP1 alone or with pHA-TAK1, pFlag-TAB1, pFlag-MKK7, pFlag-JNK, without or with pCEFL-HA-VRK2A or pCEFL-HA-VRK2B, fractionated on Superose 12 10/300 GL (50 mM Tris-HCl pH 7.5, 1 mM EDTA, 100 mM KCl); fractions analysed by western blot. For orientation: SEC sorts molecules by how far they enter the pores of the column.

Assay [3] addresses GST-VRK2A (mammalian expression) (human) (UniProt Q86Y07). Briefly: pull-down; lysates of transfected Cos1 cells (48 h; 20 mM Tris-HCl pH 7.4, 137 mM NaCl, 2 mM EDTA, 1% Triton-X100) mixed with glutathione-Sepharose beads 12 h at 4°C to bring down the GST fusion protein; associated transfected or endogenous proteins detected by western blot.
Assay [4] concerns the target GST-VRK2B (mammalian expression) (human) (UniProt Q86Y07). The description is as above.
Assay [5] concerns the target endogenous JIP1 of HeLa cells (human (endogenous in HeLa)) (UniProt Q9UQF2). Briefly: SEC; extracts of HeLa cells transfected with shControl (pSuperior-shVRK1) or shVRK2 plasmids fractionated on Superose 12 10/300 GL; endogenous proteins in the fractions detected by western blot.
The target in a further assay is T4, HA-TAK1 wild type (UniProt Q62073).
T4 sequence: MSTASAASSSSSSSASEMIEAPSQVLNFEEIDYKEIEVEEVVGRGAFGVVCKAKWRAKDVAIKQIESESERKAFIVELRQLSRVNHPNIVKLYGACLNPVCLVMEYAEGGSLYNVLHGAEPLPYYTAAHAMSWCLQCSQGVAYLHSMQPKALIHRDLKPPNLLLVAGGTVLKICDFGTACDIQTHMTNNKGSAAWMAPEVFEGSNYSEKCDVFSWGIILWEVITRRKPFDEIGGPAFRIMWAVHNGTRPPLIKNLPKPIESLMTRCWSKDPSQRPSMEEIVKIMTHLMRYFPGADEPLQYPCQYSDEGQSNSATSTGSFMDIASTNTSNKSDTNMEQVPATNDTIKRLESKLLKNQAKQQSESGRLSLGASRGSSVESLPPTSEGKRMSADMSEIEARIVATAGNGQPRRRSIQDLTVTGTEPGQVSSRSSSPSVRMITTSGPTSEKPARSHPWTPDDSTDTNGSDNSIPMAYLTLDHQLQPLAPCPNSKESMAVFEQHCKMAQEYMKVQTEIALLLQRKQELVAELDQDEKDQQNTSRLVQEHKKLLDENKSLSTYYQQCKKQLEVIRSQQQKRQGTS
Briefly: SEC; extracts of Cos1 cells transfected with pGST-JIP1 alone or with pHA-TAK1, pFlag-TAB1, pFlag-MKK7, pFlag-JNK, without or with pCEFL-HA-VRK2A or pCEFL-HA-VRK2B, fractionated on Superose 12 10/300 GL (50 mM Tris-HCl pH 7.5, 1 mM EDTA, 100 mM KCl); fractions analysed by western blot.

In assay [6] the target is T3, GST-JIP1 full-length fusion protein. Briefly: pull-down; lysates of transfected Cos1 cells (48 h; 20 mM Tris-HCl pH 7.4, 137 mM NaCl, 2 mM EDTA, 1% Triton-X100) mixed with glutathione-Sepharose beads 12 h at 4°C to bring down the GST fusion protein; associated transfected or endogenous proteins detected by western blot. The source holds these as a separate data set.

For six molecules, binding results are on record in publication PMC2243017.

These are yes or no findings as the source states them, for the method shown. For some assays here: In cells and extracts the contact can be indirect. Some entries that bind do so weakly or less than the wild type. For some assays here: Sequences can lack the tags named with a protein.

On to “HA-VRK2A (from UniProt Q86Y07-1 1-508) (enzyme)”, for which the binding entry with GST-JIP1 (1-282) was “no binding”; in the assay with GST-JIP1 (471-660) it was “binds”; in assay [1], “binds”; in [2], “binds”.
Take “HA-VRK2B (from UniProt Q86Y07-2 1-397) (enzyme)”: the binding result in the assay with GST-JIP1 (1-282) is given as “no binding”; with GST-JIP1 (471-660) it was “binds”; in [1], “binds”; in [2] it was “binds”.

B1: JIP1 expressed from pT7-JIP1 (protein, UniProt Q9WVI9-2 1-660)
chain: MAERESGLGGGAASPPAASPFLGLHIASPPNFRLTHDISLEEFEDEDLSEITDECGISLQCKDTLSLRPPRAGLLSAGSSGSAGSRLQAEMLQMDLIDAAGDTPGAEDDEEEEDDELAAQRPGVGPPKAESNQDPAPRSQGQGPGTGSGDTYRPKRPTTLNLFPQVPRSQDTLNNNSLGKKHSWQDRVSRSSSPLKTGEQTPPHEHICLSDELPPQGSPVPTQDRGTSTDSPCRRSAATQMAPPSGPPATAPGGRGHSHRDRIHYQADVRLEATEEIYLTPVQRPPDPAEPTSTFMPPTESRMSVSSDPDPAAYSVTAGRPHPSISEEDEGFDCLSSPERAEPPGGGWRGSLGEPPPPPRASLSSDTSALSYDSVKYTLVVDEHAQLELVSLRPCFGDYSDESDSATVYDNCASASSPYESAIGEEYEEAPQPRPPTCLSEDSTPDEPDVHFSKKFLNVFMSGRSRSSSAESFGLFSCVINGEEHEQTHRAIFRFVPRHEDELELEVDDPLLVELQAEDYWYEAYNMRTGARGVFPAYYAIEVTKEPEHMAALAKNSCVLEISVRGVKIGVKADDALEAKGNKCSHFFQLKNISFCGYHPKNNKYFGFITKHPADHRFACHVFVSEDSTKALAESVGRAFQQFYKQFVEYTCPTEDIYLE
As for B1, the binding result in [3] and in assay [4] was “binds” each time.

B2: endogenous TAK1 of HeLa cells (enzyme, UniProt O43318 1-606)
chain: MSTASAASSSSSSSAGEMIEAPSQVLNFEEIDYKEIEVEEVVGRGAFGVVCKAKWRAKDVAIKQIESESERKAFIVELRQLSRVNHPNIVKLYGACLNPVCLVMEYAEGGSLYNVLHGAEPLPYYTAAHAMSWCLQCSQGVAYLHSMQPKALIHRDLKPPNLLLVAGGTVLKICDFGTACDIQTHMTNNKGSAAWMAPEVFEGSNYSEKCDVFSWGIILWEVITRRKPFDEIGGPAFRIMWAVHNGTRPPLIKNLPKPIESLMTRCWSKDPSQRPSMEEIVKIMTHLMRYFPGADEPLQYPCQYSDEGQSNSATSTGSFMDIASTNTSNKSDTNMEQVPATNDTIKRLESKLLKNQAKQQSESGRLSLGASRGSSVESLPPTSEGKRMSADMSEIEARIAATTAYSKPKRGHRKTASFGNILDVPEIVISGNGQPRRRSIQDLTVTGTEPGQVSSRSSSPSVRMITTSGPTSEKPTRSHPWTPDDSTDTNGSDNSIPMAYLTLDHQLQPLAPCPNSKESMAVFEQHCKMAQEYMKVQTEIALLLQRKQELVAELDQDEKDQQNTSRLVQEHKKLLDENKSLSTYYQQCKKQLEVIRSQQQKRQGTS
Take B2: the binding entry in assay [5] is recorded as “binds”.

B3: Flag-TAB1 (protein, UniProt Q15750 1-504)
chain: MAAQRRSLLQSEQQPSWTDDLPLCHLSGVGSASNRSYSADGKGTESHPPEDSWLKFRSENNCFLYGVFNGYDGNRVTNFVAQRLSAELLLGQLNAEHAEADVRRVLLQAFDVVERSFLESIDDALAEKASLQSQLPEGVPQHQLPPQYQKILERLKTLEREISGGAMAVVAVLLNNKLYVANVGTNRALLCKSTVDGLQVTQLNVDHTTENEDELFRLSQLGLDAGKIKQVGIICGQESTRRIGDYKVKYGYTDIDLLSAAKSKPIIAEPEIHGAQPLDGVTGFLVLMSEGLYKALEAAHGPGQANQEIAAMIDTEFAKQTSLDAVAQAVVDRVKRIHSDTFASGGERARFCPRHEDMTLLVRNFGYPLGEMSQPTPSPAPAAGGRVYPVSVPYSSAQSTSKTSVTLSLVMPSQGQMVNGAHSASTLDEATPTLTNQSPTLTLQSTNTHTQSSSSSSDGGLFRSRPAHSLPPGEDGRVEPYVDFAEFYRLWSVDHGEQSVVTAP
B3: the binding result (in assay [2]; in the assay with HA-TAK1 wild type) was “binds” each time.

B4: HA-TAK1 wild type (enzyme, UniProt Q62073 1-579)
chain: MSTASAASSSSSSSASEMIEAPSQVLNFEEIDYKEIEVEEVVGRGAFGVVCKAKWRAKDVAIKQIESESERKAFIVELRQLSRVNHPNIVKLYGACLNPVCLVMEYAEGGSLYNVLHGAEPLPYYTAAHAMSWCLQCSQGVAYLHSMQPKALIHRDLKPPNLLLVAGGTVLKICDFGTACDIQTHMTNNKGSAAWMAPEVFEGSNYSEKCDVFSWGIILWEVITRRKPFDEIGGPAFRIMWAVHNGTRPPLIKNLPKPIESLMTRCWSKDPSQRPSMEEIVKIMTHLMRYFPGADEPLQYPCQYSDEGQSNSATSTGSFMDIASTNTSNKSDTNMEQVPATNDTIKRLESKLLKNQAKQQSESGRLSLGASRGSSVESLPPTSEGKRMSADMSEIEARIVATAGNGQPRRRSIQDLTVTGTEPGQVSSRSSSPSVRMITTSGPTSEKPARSHPWTPDDSTDTNGSDNSIPMAYLTLDHQLQPLAPCPNSKESMAVFEQHCKMAQEYMKVQTEIALLLQRKQELVAELDQDEKDQQNTSRLVQEHKKLLDENKSLSTYYQQCKKQLEVIRSQQQKRQGTS
As to B4, the binding entry in [6] is given as “binds”; in assay [3], “binds”; in [4], “no binding”; in assay [2], “binds”.
